The data set deals with WYL (Thermotoga elfii (Pseudothermotoga elfii)). The experiment in a line: EMSA. The conditions noted are these: 50 nM protein.

The exact form of at least one protein or probe is not confirmed.

For “TTTTTTTTTTTTTTTTTTTTTTTTTTTTTTTTTTTTTTTTTTTTTTTTTT [poly(dT) 50mer]”, the binding result is “binds”.

(Values after publication doi:10.1101/163188.)
